The assay deals with BDF1 mice, s.c. Lewis lung carcinoma, T/C %. In words: NCI In Vivo Anticancer Drug Screen. Data for tumor model Lewis Lung Carcinoma (subcutaneous) in B6D2F1 (BDF1) mice. The essentials:
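Tumor-bearing mice were treated with test compound, and either survival or tumor size was recorded. Values are the treated-group measurement divided by that of the vehicle-treated control group.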

The mark [1] stands for this setting: T/C endpoint: median survival time, dose: 4.0 mg/kg/injection, schedule: Q01DX009 (ip), vehicle: Klucel (hydroxypropylcellulose) (HPC), higher T/C = longer survival.
Setting [2] is: T/C endpoint: median survival time, dose: 8.0 mg/kg/injection, schedule: Q01DX009 (ip), vehicle: Klucel (hydroxypropylcellulose) (HPC), higher T/C = longer survival.

The list does not hold the whole screen: it is rich in T/C values a quarter to a half above the control, in often repeated tests (any T/C) and in doses without a T/C. Other doses and runs of a compound stand elsewhere. T/C gives the treated animals as a percentage of the vehicle group. Schedule codes are those of the source, read here as Q, the interval in days (D) or hours (H), X, the number of doses. Some entries give survivors of the animals treated and no T/C: the source files T/C as zero there, which appears to mark a toxic dose or a test without result, not a measured value. Some doses without a T/C left all or most animals alive at the check, yet need not have been tolerated: the source hardly ever lists a survival T/C far under the control, and the zero likely stands for such cases as well. Survivors were counted at the toxicity check, usually on the fifth day, unless a day is given; later deaths do not show. Some entries were tested several times; the results are listed from low to high. For survival time, the PubChem record calls one and a half times the control and up active, and a quarter to a half above the control has no call in these data; cut-offs in other NCI protocols can differ.

Turning to `O=NN(CCCl)C(=O)NC1CCS(=O)(=O)CC1`, the T/C was 147 % of control (T/C endpoint: median survival time, dose: 3.0 mg/kg/injection, schedule: Q04DX004 (ip), vehicle: Klucel (hydroxypropylcellulose) (HPC), higher T/C = longer survival); 139 % of control (T/C endpoint: median survival time, dose: 8.5 mg/kg/injection, schedule: Q04DX004 (ip), vehicle: carboxymethylcellulose (CMC), higher T/C = longer survival); 136 % of control (T/C endpoint: median survival time, dose: 8.5 mg/kg/injection, schedule: Q07DX002 (ip), vehicle: carboxymethylcellulose (CMC), higher T/C = longer survival); 142 % of control (T/C endpoint: median survival time, dose: 11.0 mg/kg/injection, schedule: Q07DX002 (ip), vehicle: carboxymethylcellulose (CMC), higher T/C = longer survival); 144 % of control (T/C endpoint: median survival time, dose: 14.0 mg/kg/injection, schedule: Q07DX002 (ip), vehicle: carboxymethylcellulose (CMC), higher T/C = longer survival). For the same compound, for the setting “T/C endpoint: median survival time, dose: 10.0 mg/kg/injection, schedule: Q04DX004 (ip), vehicle: carboxymethylcellulose (CMC), higher T/C = longer survival”, the survivor count was 10 of 10 on day 12.
In the case of `O=S(=O)(c1ccc(NC(=S)N/N=C/c2ccccc2O)cc1)N1CCCCC1`, the survivor count is given as 10 of 10 (T/C endpoint: median survival time, dose: 100.0 mg/kg/injection, schedule: Q01DX009 (ip), vehicle: olive oil, sesame oil, peanut oil, higher T/C = longer survival) and 10 of 10 (T/C endpoint: median survival time, dose: 400.0 mg/kg/injection, schedule: Q01DX009 (ip), vehicle: olive oil, sesame oil, peanut oil, higher T/C = longer survival).
`Nc1ncn(C2OC(CO)C(O)C2O)c(=O)n1` (configuration not stated): the survivor count (T/C endpoint: median survival time, dose: 0.75 mg/kg/injection, schedule: Q01DX009 (ip), vehicle: Klucel (hydroxypropylcellulose) (HPC), higher T/C = longer survival) is recorded as 10 of 10; the survivor count (T/C endpoint: median survival time, dose: 1.5 mg/kg/injection, schedule: Q01DX009 (ip), vehicle: Klucel (hydroxypropylcellulose) (HPC), higher T/C = longer survival) is recorded as 10 of 10; the survivor count (T/C endpoint: median survival time, dose: 1.5 mg/kg/injection, schedule: Q01DX009 (ip), vehicle: saline, higher T/C = longer survival) was 10 of 10; the survivor count (T/C endpoint: median survival time, dose: 3.0 mg/kg/injection, schedule: Q01DX009 (ip), vehicle: Klucel (hydroxypropylcellulose) (HPC), higher T/C = longer survival) was 8 of 10; the survivor count (T/C endpoint: median survival time, dose: 3.0 mg/kg/injection, schedule: Q01DX009 (ip), vehicle: saline, higher T/C = longer survival) is listed as 9 of 10; the survivor count (T/C endpoint: median survival time, dose: 6.0 mg/kg/injection, schedule: Q01DX009 (ip), vehicle: Klucel (hydroxypropylcellulose) (HPC), higher T/C = longer survival) is 7 of 10. Further, the survivor count is recorded as 10 of 10 (T/C endpoint: median survival time, dose: 6.0 mg/kg/injection, schedule: Q01DX009 (ip), vehicle: saline, higher T/C = longer survival) and 5 of 10 (T/C endpoint: median tumor weight (est.), dose: 6.0 mg/kg/injection, schedule: Q01DX009 (ip), vehicle: saline, higher T/C = larger tumour).
Turning to `C=C(C)C1CC=C(C)CC1` (configuration not stated), the survivor count (T/C endpoint: mean tumor weight, dose: 400.0 mg/kg/injection, schedule: Q01DX011 (ip), vehicle: carboxymethylcellulose (CMC), higher T/C = larger tumour) is 2 of 6.
Consider `CN(CCC(=O)c1ccccc1)CCC(=O)c1ccccc1`, for which the T/C (T/C endpoint: mean tumor weight, dose: 37.0 mg/kg/injection, schedule: Q01DX011 (ip), vehicle: other, evaluated on day 12, higher T/C = larger tumour) was 128 % of control. Also, the survivor count (T/C endpoint: mean tumor weight, dose: 125.0 mg/kg/injection, schedule: Q01DX011 (ip), vehicle: other, higher T/C = larger tumour) is given as 2 of 6.
Take `COc1ccccc1NC(=O)N(CCCl)N=O`: the survivor count runs as follows: (T/C endpoint: median survival time, dose: 3.12 mg/kg/injection, schedule: Q01DX009 (ip), vehicle: saline with Tween-80, higher T/C = longer survival) 10 of 10; (T/C endpoint: median survival time, dose: 6.25 mg/kg/injection, schedule: Q01DX009 (ip), vehicle: saline with Tween-80, higher T/C = longer survival) 10 of 10; (T/C endpoint: median survival time, dose: 12.5 mg/kg/injection, schedule: Q01DX009 (ip), vehicle: saline with Tween-80, higher T/C = longer survival) 10 of 10; (T/C endpoint: median survival time, dose: 25.0 mg/kg/injection, schedule: Q01DX009 (ip), vehicle: saline with Tween-80, higher T/C = longer survival) 10 of 10.
For `CC(=O)Oc1ccc(/C=N/NC(N)=S)nc1`, the survivor count (T/C endpoint: median survival time, dose: 150.0 mg/kg/injection, schedule: Q01DX009 (ip), vehicle: saline with Tween-80, higher T/C = longer survival) is given as 10 of 10; the survivor count (T/C endpoint: median survival time, dose: 200.0 mg/kg/injection, schedule: Q01DX009 (ip), vehicle: saline with Tween-80, higher T/C = longer survival) is 10 of 10; the survivor count (T/C endpoint: median survival time, dose: 400.0 mg/kg/injection, schedule: Q01DX009 (ip), vehicle: saline with Tween-80, higher T/C = longer survival) is reported as 10 of 10.
In the case of `CC(C)C(=O)[O][Sn]([CH3])([CH3])[CH3]`, the survivor count (T/C endpoint: median survival time, dose: 0.19 mg/kg/injection, schedule: Q01DX009 (ip), vehicle: saline, higher T/C = longer survival) is 10 of 10; the survivor count (T/C endpoint: median survival time, dose: 0.75 mg/kg/injection, schedule: Q01DX009 (ip), vehicle: saline, higher T/C = longer survival) was 5 of 10 and 9 of 10.
As for `O=C1NC(c2ccccc2Cl)Nc2ccccc21` (configuration not stated), the survivor count is listed as 10 of 10 (T/C endpoint: median survival time, dose: 50.0 mg/kg/injection, schedule: Q01DX009 (ip), vehicle: Klucel (hydroxypropylcellulose) (HPC), higher T/C = longer survival); 10 of 10 (T/C endpoint: median survival time, dose: 100.0 mg/kg/injection, schedule: Q01DX009 (ip), vehicle: Klucel (hydroxypropylcellulose) (HPC), higher T/C = longer survival); 10 of 10 (T/C endpoint: median survival time, dose: 200.0 mg/kg/injection, schedule: Q01DX009 (ip), vehicle: Klucel (hydroxypropylcellulose) (HPC), higher T/C = longer survival); 10 of 10 (T/C endpoint: median survival time, dose: 400.0 mg/kg/injection, schedule: Q01DX009 (ip), vehicle: Klucel (hydroxypropylcellulose) (HPC), higher T/C = longer survival).
On to `NC(=O)c1[nH]nc(C2OC(CO)C(O)C2O)c1O` (configuration not stated), for which the T/C is, setting by setting: (T/C endpoint: median survival time, dose: 1.0 mg/kg/injection, schedule: Q04DX003 (iv), vehicle: saline, higher T/C = longer survival) 148 % of control; (T/C endpoint: median survival time, dose: 3.0 mg/kg/injection, schedule: Q04DX003 (iv), vehicle: saline, higher T/C = longer survival) 129 % of control; (T/C endpoint: median survival time, dose: 9.0 mg/kg/injection, schedule: Q04DX003 (iv), vehicle: saline, higher T/C = longer survival) 138 % of control.
With `C[n+]1cccc(C(=O)O)c1`, under “T/C endpoint: mean tumor weight, dose: 400.0 mg/kg/injection, schedule: Q01DX011 (ip), vehicle: saline, higher T/C = larger tumour”, the survivor count is reported as 0 of 6.
With `O=S1(=O)CCCO1`, the survivor count (T/C endpoint: mean tumor weight, dose: 80.0 mg/kg/injection, schedule: Q01DX011 (ip), vehicle: saline, higher T/C = larger tumour) is 1 of 6.
As to `C#C[C@]1(O)CC[C@H]2[C@@H]3CCc4cc(O)ccc4[C@H]3CC[C@@]21C`, the survivor count (T/C endpoint: median survival time, dose: 5.0 mg/kg/injection, schedule: Q02DX009 (ip), vehicle: Klucel (hydroxypropylcellulose) (HPC), higher T/C = longer survival) is on record as 9 of 10; the survivor count (T/C endpoint: median survival time, dose: 80.0 mg/kg/injection, schedule: Q02DX009 (ip), vehicle: Klucel (hydroxypropylcellulose) (HPC), higher T/C = longer survival) is given as 10 of 10; the survivor count (T/C endpoint: median survival time, dose: 160.0 mg/kg/injection, schedule: Q02DX009 (ip), vehicle: Klucel (hydroxypropylcellulose) (HPC), higher T/C = longer survival) is reported as 10 of 10; the survivor count (T/C endpoint: median survival time, dose: 320.0 mg/kg/injection, schedule: Q02DX009 (ip), vehicle: Klucel (hydroxypropylcellulose) (HPC), higher T/C = longer survival) is given as 10 of 10; the survivor count (T/C endpoint: median survival time, dose: 640.0 mg/kg/injection, schedule: Q02DX009 (ip), vehicle: Klucel (hydroxypropylcellulose) (HPC), higher T/C = longer survival) was 10 of 10.
As for `COC(=O)C1CCC(NC(=O)N(CCCl)N=O)CC1` (configuration not stated), the T/C (T/C endpoint: median survival time, dose: 15.0 mg/kg/injection, schedule: Q01DX001 (ip), vehicle: saline with Tween-80, higher T/C = longer survival) is 127 % of control. The survivor count by setting is: (T/C endpoint: median survival time, dose: 34.0 mg/kg/injection, schedule: Q01DX001 (ip), vehicle: saline with Tween-80, higher T/C = longer survival) 10 of 10 on day 11; (T/C endpoint: median survival time, dose: 48.0 mg/kg/injection, schedule: Q01DX001 (ip), vehicle: saline with Tween-80, higher T/C = longer survival) 10 of 10 on day 11.
Consider `Nc1nc(=S)c2[nH]cnc2[nH]1`, for which the survivor count was 10 of 10 (T/C endpoint: median survival time, dose: 2.0 mg/kg/injection, schedule: Q01DX009 (ip), vehicle: Klucel (hydroxypropylcellulose) (HPC), higher T/C = longer survival); 10 of 10 under setting [1]; 9 of 10 under setting [2]; 10 of 10 (T/C endpoint: median survival time, dose: 16.0 mg/kg/injection, schedule: Q01DX009 (ip), vehicle: Klucel (hydroxypropylcellulose) (HPC), higher T/C = longer survival).
On to `Cc1cn(C2OC(CO)C(O)C2O)c(=O)[nH]c1=O` (configuration not stated), for which the T/C (T/C endpoint: mean tumor weight, dose: 125.0 mg/kg/injection, schedule: Q01DX011 (ip), vehicle: saline, evaluated on day 12, higher T/C = larger tumour) was 136 % of control and the T/C (T/C endpoint: mean tumor weight, dose: 250.0 mg/kg/injection, schedule: Q01DX011 (ip), vehicle: saline, evaluated on day 12, higher T/C = larger tumour) is 130 % of control.
Turning to `NC(Cc1cc([N+](=O)[O-])ccc1CN(CCCl)CCCl)C(=O)O` (configuration not stated), the survivor count runs as follows: under setting [1], 10 of 10; under setting [2], 10 of 10; (T/C endpoint: median survival time, dose: 25.0 mg/kg/injection, schedule: Q01DX001 (ip), vehicle: Klucel (hydroxypropylcellulose) (HPC), higher T/C = longer survival) 6 of 10.
With `CCN(CC)CCNc1ccc([N+](=O)[O-])c2sc3ccccc3c(=O)c12`, the survivor count (T/C endpoint: mean tumor weight, dose: 100.0 mg/kg/injection, schedule: Q01DX011 (ip), vehicle: other, higher T/C = larger tumour) is 1 of 6.
For the compound `O=NN(CCCl)C(=O)Nc1ccc(Cl)c(Cl)c1`, the survivor count (T/C endpoint: median survival time, dose: 32.0 mg/kg/injection, schedule: Q01DX009 (ip), vehicle: saline with Tween-80, higher T/C = longer survival) was 10 of 10 and the survivor count (T/C endpoint: median survival time, dose: 64.0 mg/kg/injection, schedule: Q01DX009 (ip), vehicle: saline with Tween-80, higher T/C = longer survival) is 9 of 10.

The record behind these values is PubChem BioAssay AID270 (DTP/NCI, 2004).
